Experimental data reported in the supplement of paper PMC7125110.
± gives the standard error. Many entries were measured with a wide error.

B1: glmS ribozyme (parent)
chain: AUAAAAGCGCCAGAACUACAGAAAUGUAGUUGACGAGGAGGAGGUUUAUCGAAUUUUCGGCGGAUGCCUCCAAA

Variants of: B1
Assay: kcat; higher = faster cleavage; RNA array
Settings: with glucosamine-6-phosphate
Method in brief: (§1)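 kobs was derived by fitting per-tile medians to one- or two-exponential decays after normalising signals to baseline and to non-cleaving reference variants. Those signals came from barcoded ribozyme variants transcribed in situ by E. coli RNA polymerase on sequenced MiSeq chips, followed through a hybridised Cy3 probe at 37 °C and imaged over ~14 h. Glucosamine-6-phosphate (40 μM to 10 mM) in HEPES/KCl/Mg(OAc)2 buffer was flowed in. Weighted Michaelis–Menten fits across concentrations then gave kcat and KM.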

How did the kcat turn out when AUAAAAGCGCCAGGACUACAGAAAUGUAGUUGACGAGGAGGAGGUUUAUCGACUUUUCGGCGGAUGCCUCUAAA [A14G A53C C71U] was run?
Its kcat is 0.00788 ± 0.0043 s⁻¹.

How did the kcat turn out when AUAAAAGCGCCAGGACUACAGAAAUGUAGUUGACGAGGAGGAGGUUUAUCGAAAUUUCGGCGGAUGCCUCCAAA [A14G U54A] was run?
Its kcat is 0.0217 ± 0.014 s⁻¹.

How did the kcat turn out when AUAAAAGCGCCAGAGUUACAGAAAUGUAGUUGACGAGGAGGAGGUUUAUCGAAUUUUCGGCGGAUGCGUCCAAA [A15G C16U C68G] was run?
Its kcat is 5.74e-05 ± 2.6e-05 s⁻¹.

How did the kcat turn out when AUAAAAGCGCCAGGACUACAGAAAUGUAGUUGACGAGGAGGAGGUUUAUCGAAUUUUCGGAGGAUGCCUCCAAA [A14G C61A] was run?
Its kcat is 1.1e-05 ± 4.8e-06 s⁻¹.

AUAAAAGCGCCAGACCUACAGAAAUGUAGUUGACGAGGAGGAGGUUUCUCGAAUUUUCGGCGGAUGCCUCCAAA [A15C A48C] was tested. Which kcat did it give?
Its kcat is 0.000268 ± 0.00017 s⁻¹.

How did the kcat turn out when AUAAAAGCGCCAGUACUACAGAAAUGUAGUUCACGAGGAGGAGGUUUAUCGAAUUUUCGGCGGAUGACUCCAAA [A14U G32C C67A] was run?
Its kcat is 0.000192 ± 9.7e-05 s⁻¹.

For AUAAAAGCGCCUGAUCUACAGAAAUGUAGUUGACGAGGAGGGGGUUUAUCGAAUUUUCGGCGGAUGCCUCCAAA [A12U A15U A42G], which kcat is on record?
Its kcat is 0.00216 ± 0.0014 s⁻¹.

AUAAAAGCGCCAGACGUACAGAAAUGUAGUUGACGAGGAGGAGGUUUAUCGAAUUUUCGGCGGAUGCCUCCAAA [A15C C16G] was tested. Which kcat did it give?
Its kcat is 0.00395 ± 0.0024 s⁻¹.

Which kcat does the source give for AUAAAAGCGCCAGAGCUACAGAAAUGUAGUUGACGAGGAGGAGGUUUAUGGAAUUUUCGGCGGAUGCCUUCAAA [A15G C50G C70U] here?
Its kcat is 6.81e-05 ± 3.6e-05 s⁻¹.

With AUAAAAGCGCCUGAACUACAGAAAUGUAGUUGACGAGGAGGAGGUUUAUCGGAUUUUCGGCGGAUGCCUCCAAA [A12U A52G] as the variant, how does the kcat read?
The kcat was 0.016 ± 0.0097 s⁻¹.

AUAAAAGCGCCAGCACUACAGAAAUGUAGUUGACGAGGAGGAGGUUUAUCGAAAUUUCGGCGGAUGCCUCCAAA [A14C U54A] was tested. Which kcat did it give?
The kcat was 0.00395 ± 0.0022 s⁻¹.

How did the kcat turn out when AUAAAAGCGCCAGUAUUACAGAAAUGUAGUUGACGAGGAGGAGGUUUAUCGAAUUUUCGGCGGAUGCCUCCAAA [A14U C16U] was run?
Its kcat is 0.00393 ± 0.0021 s⁻¹.

AUAAAAGCGCCAGAUCUACAGAAAUGUAGUUGACGAGGAGGAGGUUUAUCGAAUUUUCGGCGGAUGCCUGAAAA [A15U C70G C71A] was tested. Which kcat did it give?
The kcat was 1.99e-05 ± 1.7e-05 s⁻¹.

With AUAAAAGCGCCAUAACUACAGAAAUGUAGUUGACGAGGAGGAGUUUUAUCGAAUUUUCGGCGGAUGCCUCCAAA [G13U G44U] as the variant, how does the kcat read?
The kcat was less than 1e-05 s⁻¹.

How did the kcat turn out when AUAAAAGCGCCAUAACUACAGAAAUGUAGUUGACGAGGAGGAGGUUUAUCGAAUUUUAGGCGGAUGCCUCCAAA [G13U C58A] was run?
The kcat was 0.00192 ± 0.0011 s⁻¹.

For AUAAAAGCGCCUGAACUACAGAAAUGUAGUUGACGAGGAGGAGGUUUAUCGAUUUUUCGGCGGAUGCCUCCAAA [A12U A53U], which kcat is on record?
Its kcat is 0.0471 ± 0.024 s⁻¹.

With AUAAAAGCGCCAGUACUACAGAAAUGUAGUUGACGAGGAGGAGGUUUAUCGAAUUUUCGGCGGAUGACUCCAAA [A14U C67A] as the variant, how does the kcat read?
The kcat was 0.00153 ± 0.00048 s⁻¹.

Which kcat does the source give for AUAAAAGCGCCACAACUACAGAAAUGUAGUGGACGAGGAGGAGGUUUAUCGAAUUUUCGGCGGAUGCCUUCAAA [G13C U31G C70U] here?
The kcat was 0.000159 ± 3.6e-05 s⁻¹.

How did the kcat turn out when AUAAAAGCGCCAGAGCUACAGAAAUGUAGUUGACGAGGAGGAGGUUAAUCGAAUUUUCGGCGGAUGCCUCCAAA [A15G U47A] was run?
Its kcat is 0.0213 ± 0.015 s⁻¹.

Variants of: B1
Assay: KM; higher = weaker cofactor use; RNA array
Settings: with glucosamine-6-phosphate
Method in brief: as §1

For AUAAAAGCGCCAGGACUACAGAAAUGUAGUUGACGAGGAGGAGGUUUAUCGACUUUUCGGCGGAUGCCUCUAAA [A14G A53C C71U], which KM is on record?
The KM was 1290 ± 1100 µM.

How did the KM turn out when AUAAAAGCGCCAGGACUACAGAAAUGUAGUUGACGAGGAGGAGGUUUAUCGAAAUUUCGGCGGAUGCCUCCAAA [A14G U54A] was run?
The KM was 589 ± 470 µM.

For AUAAAAGCGCCAGACCUACAGAAAUGUAGUUGACGAGGAGGAGGUUUCUCGAAUUUUCGGCGGAUGCCUCCAAA [A15C A48C], which KM is on record?
Its KM is 43800 ± 33000 µM.

How did the KM turn out when AUAAAAGCGCCAGUACUACAGAAAUGUAGUUCACGAGGAGGAGGUUUAUCGAAUUUUCGGCGGAUGACUCCAAA [A14U G32C C67A] was run?
Its KM is 12200 ± 9500 µM.

With AUAAAAGCGCCAGACGUACAGAAAUGUAGUUGACGAGGAGGAGGUUUAUCGAAUUUUCGGCGGAUGCCUCCAAA [A15C C16G] as the variant, how does the KM read?
Its KM is 5120 ± 4200 µM.

Which KM does the source give for AUAAAAGCGCCUGAACUACAGAAAUGUAGUUGACGAGGAGGAGGUUUAUCGGAUUUUCGGCGGAUGCCUCCAAA [A12U A52G] here?
The KM was 11300 ± 8200 µM.

With AUAAAAGCGCCAGCACUACAGAAAUGUAGUUGACGAGGAGGAGGUUUAUCGAAAUUUCGGCGGAUGCCUCCAAA [A14C U54A] as the variant, how does the KM read?
The KM was 1250 ± 1100 µM.

For AUAAAAGCGCCAGUAUUACAGAAAUGUAGUUGACGAGGAGGAGGUUUAUCGAAUUUUCGGCGGAUGCCUCCAAA [A14U C16U], which KM is on record?
Its KM is 701 ± 560 µM.

How did the KM turn out when AUAAAAGCGCCAUAACUACAGAAAUGUAGUUGACGAGGAGGAGGUUUAUCGAAUUUUAGGCGGAUGCCUCCAAA [G13U C58A] was run?
Its KM is 4360 ± 3500 µM.

Which KM does the source give for AUAAAAGCGCCUGAACUACAGAAAUGUAGUUGACGAGGAGGAGGUUUAUCGAUUUUUCGGCGGAUGCCUCCAAA [A12U A53U] here?
The KM was 1310 ± 840 µM.

How did the KM turn out when AUAAAAGCGCCAGUACUACAGAAAUGUAGUUGACGAGGAGGAGGUUUAUCGAAUUUUCGGCGGAUGACUCCAAA [A14U C67A] was run?
Its KM is 1240 ± 540 µM.

Which KM does the source give for AUAAAAGCGCCACAACUACAGAAAUGUAGUGGACGAGGAGGAGGUUUAUCGAAUUUUCGGCGGAUGCCUUCAAA [G13C U31G C70U] here?
The KM was 1340 ± 910 µM.

With AUAAAAGCGCCAGAGCUACAGAAAUGUAGUUGACGAGGAGGAGGUUAAUCGAAUUUUCGGCGGAUGCCUCCAAA [A15G U47A] as the variant, how does the KM read?
Its KM is 1570 ± 1400 µM.

Variants of: B1
Assay: self-cleavage kobs at 10000 uM GlcN6P; higher = faster cleavage; RNA array
Settings: with glucosamine-6-phosphate
Method in brief: as §1

For AUAAAAGCGCCAGAGUUACAGAAAUGUAGUUGACGAGGAGGAGGUUUAUCGAAUUUUCGGCGGAUGCGUCCAAA [A15G C16U C68G], which “self-cleavage kobs at 10000 uM GlcN6P” value is on record?
Its value is 2.5e-05 ± 1.8e-05 s⁻¹.

How did the “self-cleavage kobs at 10000 uM GlcN6P” value turn out when AUAAAAGCGCCUGAUCUACAGAAAUGUAGUUGACGAGGAGGGGGUUUAUCGAAUUUUCGGCGGAUGCCUCCAAA [A12U A15U A42G] was run?
The value was 0.0212 ± 0.015 s⁻¹.

Variants of: B1
Assay: self-cleavage kobs at 2500 uM GlcN6P; higher = faster cleavage; RNA array
Settings: with glucosamine-6-phosphate
Method in brief: as §1

For AUAAAAGCGCCAGACGUACAGAAAUGUAGUUGACGAGGAGGAGGUUUAUCGAAUUUUCGGCGGAUGCCUCCAAA [A15C C16G], which “self-cleavage kobs at 2500 uM GlcN6P” value is on record?
The value was 0.000577 ± 0.00032 s⁻¹.

Variants of: B1
Assay: self-cleavage kobs at 640 uM GlcN6P; higher = faster cleavage; RNA array
Settings: with glucosamine-6-phosphate
Method in brief: as §1

AUAAAAGCGCCAGAUCUACAGAAAUGUAGUUGACGAGGAGGAGGUUUAUCGAAUUUUCGGCGGAUGCCUGAAAA [A15U C70G C71A] was tested. Which “self-cleavage kobs at 640 uM GlcN6P” value did it give?
The value was 9.64e-05 ± 7.4e-05 s⁻¹.

Which “self-cleavage kobs at 640 uM GlcN6P” value does the source give for AUAAAAGCGCCAGAGCUACAGAAAUGUAGUUGACGAGGAGGAGGUUAAUCGAAUUUUCGGCGGAUGCCUCCAAA [A15G U47A] here?
The value was 0.00267 ± 0.0015 s⁻¹.

Variants of: B1
Assay: self-cleavage kobs at 160 uM GlcN6P; higher = faster cleavage; RNA array
Settings: with glucosamine-6-phosphate
Method in brief: as §1

AUAAAAGCGCCAGAGCUACAGAAAUGUAGUUGACGAGGAGGAGGUUAAUCGAAUUUUCGGCGGAUGCCUCCAAA [A15G U47A] was tested. Which “self-cleavage kobs at 160 uM GlcN6P” value did it give?
The value was 0.00126 ± 0.00084 s⁻¹.
